Measurements reported in the supplement of paper PMC10849652.
The other results are listed elsewhere or left out.

Amino acid sequences for entries named in this document (tags omitted). A change or cut given only in a name is not applied to a line headed by its entry.
UniProt P14618, whole entry, looked up: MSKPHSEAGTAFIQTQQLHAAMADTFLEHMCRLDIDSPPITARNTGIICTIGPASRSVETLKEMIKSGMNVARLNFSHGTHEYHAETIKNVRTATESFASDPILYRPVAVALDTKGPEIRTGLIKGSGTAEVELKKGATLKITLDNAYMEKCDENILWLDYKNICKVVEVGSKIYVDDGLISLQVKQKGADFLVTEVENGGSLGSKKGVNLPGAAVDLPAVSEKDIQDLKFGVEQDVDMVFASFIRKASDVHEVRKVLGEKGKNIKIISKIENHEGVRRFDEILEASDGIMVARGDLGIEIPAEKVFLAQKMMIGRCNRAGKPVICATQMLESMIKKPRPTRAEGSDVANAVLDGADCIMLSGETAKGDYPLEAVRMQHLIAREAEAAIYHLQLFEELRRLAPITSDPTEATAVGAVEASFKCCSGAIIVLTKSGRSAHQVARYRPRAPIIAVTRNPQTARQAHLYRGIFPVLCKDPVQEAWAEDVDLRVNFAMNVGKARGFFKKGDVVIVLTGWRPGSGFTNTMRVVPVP
UniProt Q9NXJ5: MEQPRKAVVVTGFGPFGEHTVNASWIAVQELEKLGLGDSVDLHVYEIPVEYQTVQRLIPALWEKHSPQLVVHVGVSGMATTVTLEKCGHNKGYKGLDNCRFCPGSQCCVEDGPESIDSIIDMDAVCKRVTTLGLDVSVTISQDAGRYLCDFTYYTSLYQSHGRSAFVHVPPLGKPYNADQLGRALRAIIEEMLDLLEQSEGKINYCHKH
UniProt Q9Y2B2: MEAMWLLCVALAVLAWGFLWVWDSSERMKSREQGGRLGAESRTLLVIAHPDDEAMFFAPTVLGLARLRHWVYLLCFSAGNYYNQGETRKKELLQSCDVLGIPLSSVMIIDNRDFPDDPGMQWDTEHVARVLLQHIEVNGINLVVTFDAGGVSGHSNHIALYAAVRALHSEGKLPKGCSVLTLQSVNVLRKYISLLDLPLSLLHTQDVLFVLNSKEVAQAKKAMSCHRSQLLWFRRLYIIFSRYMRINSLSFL
UniProt Q99569: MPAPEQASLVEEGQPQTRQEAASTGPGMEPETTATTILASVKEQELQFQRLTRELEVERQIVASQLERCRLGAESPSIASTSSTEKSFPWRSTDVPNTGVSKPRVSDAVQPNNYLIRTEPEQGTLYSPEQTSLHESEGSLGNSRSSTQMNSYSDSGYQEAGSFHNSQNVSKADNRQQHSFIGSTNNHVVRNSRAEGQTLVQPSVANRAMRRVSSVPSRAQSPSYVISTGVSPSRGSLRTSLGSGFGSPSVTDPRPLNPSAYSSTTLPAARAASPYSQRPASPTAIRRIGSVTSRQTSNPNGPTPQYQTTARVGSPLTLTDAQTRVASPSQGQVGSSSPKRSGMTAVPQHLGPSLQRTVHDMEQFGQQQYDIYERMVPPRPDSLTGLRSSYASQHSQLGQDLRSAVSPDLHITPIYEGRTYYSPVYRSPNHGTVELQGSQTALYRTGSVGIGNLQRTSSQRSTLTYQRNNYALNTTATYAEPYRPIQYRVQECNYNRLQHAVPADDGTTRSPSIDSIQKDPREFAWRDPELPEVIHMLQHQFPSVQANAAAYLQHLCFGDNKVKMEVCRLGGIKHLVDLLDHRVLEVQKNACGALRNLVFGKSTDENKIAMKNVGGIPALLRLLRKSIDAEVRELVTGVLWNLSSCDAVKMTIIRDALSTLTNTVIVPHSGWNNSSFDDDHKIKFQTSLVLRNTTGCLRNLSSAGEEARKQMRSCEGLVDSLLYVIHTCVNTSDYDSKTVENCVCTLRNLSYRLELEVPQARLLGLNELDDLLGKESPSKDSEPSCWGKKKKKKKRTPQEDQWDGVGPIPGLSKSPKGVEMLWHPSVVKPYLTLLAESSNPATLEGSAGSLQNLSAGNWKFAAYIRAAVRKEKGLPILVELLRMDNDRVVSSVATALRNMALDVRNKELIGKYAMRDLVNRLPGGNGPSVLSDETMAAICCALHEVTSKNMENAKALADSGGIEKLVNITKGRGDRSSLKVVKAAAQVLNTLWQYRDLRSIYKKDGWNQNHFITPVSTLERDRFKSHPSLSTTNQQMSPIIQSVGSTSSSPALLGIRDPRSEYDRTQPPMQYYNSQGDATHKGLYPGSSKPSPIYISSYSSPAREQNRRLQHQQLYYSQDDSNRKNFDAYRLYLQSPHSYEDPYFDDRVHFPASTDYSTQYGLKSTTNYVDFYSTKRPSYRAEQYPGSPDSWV
UniProt Q9C010: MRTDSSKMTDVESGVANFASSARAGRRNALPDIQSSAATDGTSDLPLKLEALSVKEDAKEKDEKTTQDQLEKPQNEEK
UniProt P08F94: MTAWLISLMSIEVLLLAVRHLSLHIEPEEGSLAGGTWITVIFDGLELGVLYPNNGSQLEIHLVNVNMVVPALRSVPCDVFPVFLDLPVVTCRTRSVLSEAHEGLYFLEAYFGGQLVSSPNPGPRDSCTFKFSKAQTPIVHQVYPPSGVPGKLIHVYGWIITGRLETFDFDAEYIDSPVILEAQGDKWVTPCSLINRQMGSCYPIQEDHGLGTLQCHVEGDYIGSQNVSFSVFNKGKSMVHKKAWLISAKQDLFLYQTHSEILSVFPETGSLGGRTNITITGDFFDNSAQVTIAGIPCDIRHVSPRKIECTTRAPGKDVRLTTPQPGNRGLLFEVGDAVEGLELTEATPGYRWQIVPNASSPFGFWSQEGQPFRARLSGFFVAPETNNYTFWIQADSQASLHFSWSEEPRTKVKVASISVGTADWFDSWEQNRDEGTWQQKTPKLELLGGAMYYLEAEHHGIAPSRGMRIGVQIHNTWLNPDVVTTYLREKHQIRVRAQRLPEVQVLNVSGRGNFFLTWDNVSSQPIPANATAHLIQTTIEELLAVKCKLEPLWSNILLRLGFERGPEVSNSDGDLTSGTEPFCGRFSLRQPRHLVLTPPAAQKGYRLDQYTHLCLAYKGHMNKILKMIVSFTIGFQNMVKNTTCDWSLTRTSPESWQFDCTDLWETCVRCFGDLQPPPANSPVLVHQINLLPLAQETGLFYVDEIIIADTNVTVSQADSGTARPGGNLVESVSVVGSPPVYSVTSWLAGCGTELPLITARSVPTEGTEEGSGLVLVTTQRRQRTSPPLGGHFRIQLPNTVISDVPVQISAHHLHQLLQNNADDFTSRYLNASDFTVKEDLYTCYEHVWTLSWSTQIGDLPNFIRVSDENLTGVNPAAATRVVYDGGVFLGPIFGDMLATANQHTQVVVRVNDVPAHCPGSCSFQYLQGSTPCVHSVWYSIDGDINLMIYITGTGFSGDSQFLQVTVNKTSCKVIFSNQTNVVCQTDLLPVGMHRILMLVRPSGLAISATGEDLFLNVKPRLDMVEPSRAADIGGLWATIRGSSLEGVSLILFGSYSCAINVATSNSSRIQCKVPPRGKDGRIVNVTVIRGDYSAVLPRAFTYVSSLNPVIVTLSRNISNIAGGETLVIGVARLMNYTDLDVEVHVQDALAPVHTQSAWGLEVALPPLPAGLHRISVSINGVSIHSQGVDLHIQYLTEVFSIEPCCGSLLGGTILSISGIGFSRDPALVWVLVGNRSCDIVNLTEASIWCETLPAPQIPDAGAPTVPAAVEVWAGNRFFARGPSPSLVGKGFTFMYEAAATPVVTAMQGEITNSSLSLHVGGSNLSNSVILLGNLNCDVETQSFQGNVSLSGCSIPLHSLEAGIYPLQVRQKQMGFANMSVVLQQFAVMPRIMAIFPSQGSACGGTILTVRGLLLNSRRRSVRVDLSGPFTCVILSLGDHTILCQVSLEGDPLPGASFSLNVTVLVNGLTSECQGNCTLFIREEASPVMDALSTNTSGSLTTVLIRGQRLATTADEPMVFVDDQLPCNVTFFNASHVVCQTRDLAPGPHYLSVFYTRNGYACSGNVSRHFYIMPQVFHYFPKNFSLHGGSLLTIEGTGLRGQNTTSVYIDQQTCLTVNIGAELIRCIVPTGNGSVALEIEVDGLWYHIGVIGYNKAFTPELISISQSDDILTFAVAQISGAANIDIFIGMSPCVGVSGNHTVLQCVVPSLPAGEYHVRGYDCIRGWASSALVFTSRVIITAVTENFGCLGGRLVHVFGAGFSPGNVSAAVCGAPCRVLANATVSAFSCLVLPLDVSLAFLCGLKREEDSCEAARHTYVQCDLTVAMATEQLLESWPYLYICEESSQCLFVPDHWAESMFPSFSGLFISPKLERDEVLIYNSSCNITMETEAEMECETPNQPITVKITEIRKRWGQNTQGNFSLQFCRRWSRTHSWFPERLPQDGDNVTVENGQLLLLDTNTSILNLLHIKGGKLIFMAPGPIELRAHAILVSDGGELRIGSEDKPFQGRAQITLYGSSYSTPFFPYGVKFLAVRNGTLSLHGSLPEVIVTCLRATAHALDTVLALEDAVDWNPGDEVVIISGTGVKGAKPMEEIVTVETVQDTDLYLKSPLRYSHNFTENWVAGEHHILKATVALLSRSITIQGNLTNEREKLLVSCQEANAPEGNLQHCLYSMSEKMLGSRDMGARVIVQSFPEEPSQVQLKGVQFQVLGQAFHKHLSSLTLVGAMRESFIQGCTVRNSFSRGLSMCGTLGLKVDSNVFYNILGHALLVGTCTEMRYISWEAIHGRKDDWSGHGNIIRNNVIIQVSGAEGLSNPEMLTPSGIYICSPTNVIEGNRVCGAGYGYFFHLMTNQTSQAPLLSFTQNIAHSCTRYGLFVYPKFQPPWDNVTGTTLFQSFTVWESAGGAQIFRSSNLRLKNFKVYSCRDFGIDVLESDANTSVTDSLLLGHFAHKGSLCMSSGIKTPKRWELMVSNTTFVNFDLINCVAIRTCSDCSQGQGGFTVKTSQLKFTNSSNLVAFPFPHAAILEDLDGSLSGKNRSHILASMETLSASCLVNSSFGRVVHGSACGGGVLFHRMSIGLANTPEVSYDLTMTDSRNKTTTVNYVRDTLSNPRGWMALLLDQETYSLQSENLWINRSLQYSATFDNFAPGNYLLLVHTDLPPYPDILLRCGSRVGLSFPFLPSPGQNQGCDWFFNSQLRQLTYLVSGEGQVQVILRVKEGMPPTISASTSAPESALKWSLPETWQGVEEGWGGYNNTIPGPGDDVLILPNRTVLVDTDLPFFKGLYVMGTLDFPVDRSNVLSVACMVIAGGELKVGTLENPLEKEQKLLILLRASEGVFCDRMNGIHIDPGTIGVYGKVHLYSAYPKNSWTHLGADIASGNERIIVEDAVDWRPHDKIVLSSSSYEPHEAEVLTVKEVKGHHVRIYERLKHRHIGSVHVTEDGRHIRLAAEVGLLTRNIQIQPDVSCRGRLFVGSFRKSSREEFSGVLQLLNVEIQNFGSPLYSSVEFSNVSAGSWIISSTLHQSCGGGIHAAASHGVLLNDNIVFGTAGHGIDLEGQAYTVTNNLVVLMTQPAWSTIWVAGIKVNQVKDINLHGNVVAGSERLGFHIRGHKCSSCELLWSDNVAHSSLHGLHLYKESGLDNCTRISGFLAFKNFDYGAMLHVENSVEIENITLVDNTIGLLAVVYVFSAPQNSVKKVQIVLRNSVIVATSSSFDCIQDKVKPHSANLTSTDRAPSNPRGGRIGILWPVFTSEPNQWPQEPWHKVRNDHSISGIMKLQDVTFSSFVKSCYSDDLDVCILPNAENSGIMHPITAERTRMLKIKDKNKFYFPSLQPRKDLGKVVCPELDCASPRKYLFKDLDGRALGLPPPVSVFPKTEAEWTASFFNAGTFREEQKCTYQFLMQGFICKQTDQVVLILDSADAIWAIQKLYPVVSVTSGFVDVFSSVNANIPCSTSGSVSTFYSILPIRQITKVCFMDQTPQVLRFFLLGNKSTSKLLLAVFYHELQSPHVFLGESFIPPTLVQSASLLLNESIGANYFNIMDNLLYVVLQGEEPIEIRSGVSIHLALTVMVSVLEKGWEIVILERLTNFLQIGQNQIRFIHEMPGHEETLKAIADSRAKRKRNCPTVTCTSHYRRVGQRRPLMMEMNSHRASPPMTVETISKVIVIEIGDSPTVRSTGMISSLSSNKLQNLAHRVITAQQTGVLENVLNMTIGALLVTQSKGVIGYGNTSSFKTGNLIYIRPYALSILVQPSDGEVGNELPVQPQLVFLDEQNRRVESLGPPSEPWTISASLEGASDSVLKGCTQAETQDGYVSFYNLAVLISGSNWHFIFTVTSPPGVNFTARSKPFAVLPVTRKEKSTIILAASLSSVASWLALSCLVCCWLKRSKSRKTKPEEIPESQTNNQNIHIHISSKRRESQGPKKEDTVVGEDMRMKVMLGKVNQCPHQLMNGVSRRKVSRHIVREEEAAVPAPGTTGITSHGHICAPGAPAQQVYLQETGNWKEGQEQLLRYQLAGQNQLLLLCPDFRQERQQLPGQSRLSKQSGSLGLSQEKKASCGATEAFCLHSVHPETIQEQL
UniProt Q9BSJ6: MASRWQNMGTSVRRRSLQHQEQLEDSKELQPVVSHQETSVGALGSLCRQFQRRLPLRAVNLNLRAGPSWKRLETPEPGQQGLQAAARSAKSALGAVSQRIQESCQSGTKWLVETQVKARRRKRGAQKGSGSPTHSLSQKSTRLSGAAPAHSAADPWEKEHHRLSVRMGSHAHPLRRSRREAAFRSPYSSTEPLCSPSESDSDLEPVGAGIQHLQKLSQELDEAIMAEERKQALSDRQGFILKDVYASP

Assays:
Experiment in all cases: log2 fold change, soluble protein after heating vs DMSO (PISA); higher = thermal stabilisation; K562 cells, 10 uM, 30 min; active = over 0.2 and 3.5 SD of the protein, either way, in both replicates (recomputed)
[1] = compound: CC[C@@H]1C(=O)N(C)c2cnc(Nc3ccc(C(=O)NC4CCN(C)CC4)cc3OC)nc2N1C1CCCC1
How it was run: (§1)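 K562 cells at 2×10^6 cells/mL were given 10 μM compound for 30 min. Aliquots then went through 3 min of heating across 48°C-58°C, were pooled, and were extracted in PBS with 0.5% NP-40 at 4°C, and the supernatant after 21,000xg for 90 min was quantified by TMTpro 16plex LC-MS/MS with channel sums equalised. Thermal stability relative to control samples, from duplicates, is given as log2 fold change.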

volasertib = compound: CC[C@@H]1C(=O)N(C)c2cnc(Nc3ccc(C(=O)N[C@H]4CC[C@H](N5CCN(CC6CC6)CC5)CC4)cc3OC)nc2N1C(C)C [volasertib]
How it was run: as §1

[2] = compound: CC[C@H](C)N1C=C(C2=C(C=C(C=C21)C3=CN=C(C=C3)N4CCNCC4)C(=O)NCC5=C(C=C(NC5=O)C)C)C
How it was run: as §1

epoxomicin = compound: CC[C@H](C)[C@@H](C(=O)N[C@@H]([C@@H](C)O)C(=O)N[C@@H](CC(C)C)C(=O)[C@]1(CO1)C)NC(=O)[C@H]([C@@H](C)CC)N(C)C(=O)C [epoxomicin]
How it was run: as §1

[3] = compound: CCn1cc(-c2ccnc3[nH]c(-c4cccc(CN(C)C)c4)cc23)c(-c2ccc(NC(=O)N(C)C)cc2)n1
How it was run: as §1

rosiglitazone = compound: CN(CCOC1=CC=C(C=C1)C[C@H]2C(=O)NC(=O)S2)C3=CC=CC=N3 (racemic) [rosiglitazone]
How it was run: as §1

[4] = compound: CN1C2=C(C3=C1C(=O)N(N=C3)CC4=CC(=CC=C4)N)SC(=C2)S(=O)C
How it was run: as §1

[5] = compound: CN1CCC(CNc2ccc3ncc(-c4cccc(OC(F)(F)F)c4)n3n2)CC1
How it was run: as §1

saracatinib = compound: CN1CCN(CCOc2cc(OC3CCOCC3)c3c(Nc4c(Cl)ccc5c4OCO5)ncnc3c2)CC1 [saracatinib]
How it was run: as §1

sotrastaurin = compound: CN1CCN(c2nc(C3=C(c4c[nH]c5ccccc45)C(=O)NC3=O)c3ccccc3n2)CC1 [sotrastaurin]
How it was run: as §1

alvocidib = compound: CN1CC[C@H](c2c(O)cc(O)c3c(=O)cc(-c4ccccc4Cl)oc23)[C@H](O)C1 [alvocidib]
How it was run: as §1

Tubastatin A = compound: CN1CCc2c(c3ccccc3n2Cc2ccc(C(=O)NO)cc2)C1 [Tubastatin A]
How it was run: as §1

rucaparib = compound: CNCc1ccc(-c2[nH]c3cc(F)cc4c3c2CCNC4=O)cc1 [rucaparib]
How it was run: as §1

[6] = compound: CNc1nc(-c2ccc3c(N)n[nH]c3c2)cc(N2C[C@@H](C(=O)NC3CCCCC3)CC[C@H]2C)n1
How it was run: as §1

encorafenib = compound: COC(=O)N[C@@H](C)CNc1nccc(-c2cn(C(C)C)nc2-c2cc(Cl)cc(NS(C)(=O)=O)c2F)n1 [encorafenib]
How it was run: as §1

[7] = compound: CN(C)CC(=O)Nc1ccc2[nH]c(=O)c3ccccc3c2c1
How it was run: as §1

[8] = compound: CNC(=O)C1=CC=CC=C1NC2=NC(=NC=C2Cl)NC3=C(C=C(C=C3)N4CCOCC4)OC
How it was run: as §1

defactinib = compound: CNC(=O)c1ccc(Nc2ncc(C(F)(F)F)c(NCc3nccnc3N(C)S(C)(=O)=O)n2)cc1 [defactinib]
How it was run: as §1

[9] = compound: COC(=O)[C@H](CCSC)NC(=O)C1=C(C=C(C=C1)NC[C@H](CS)N)C2=CC=CC=C2
How it was run: as §1

[10] = compound: CCn1c(C(=O)N(C2CC2)C2CC2)cc2c3c(ncn3C)c(Nc3cc(C)n(C)n3)nc21
How it was run: as §1

Target	log2 fold change [1]	log2 fold change (volasertib)	log2 fold change [2]	log2 fold change (epoxomicin)	log2 fold change [3]	log2 fold change (rosiglitazone)	log2 fold change [4]	log2 fold change [5]	log2 fold change (saracatinib)	log2 fold change (sotrastaurin)	log2 fold change (alvocidib)	log2 fold change (Tubastatin A)	log2 fold change (rucaparib)	log2 fold change [6]	log2 fold change (encorafenib)	log2 fold change [7]	log2 fold change [8]	log2 fold change (defactinib)	log2 fold change [9]	log2 fold change [10]
PIGN (UniProt O95427)	inactive: 0.168	inactive: -0.075	inactive: 0.003	inactive: 0.068	inactive: 0.115	inactive: -0.12	inactive: 0.143	inactive: -0.194	inactive: 0.061	inactive: 0.074	inactive: 0.049	inactive: 0.061	inactive: 0.037	inactive: -0.222	inactive: 0.099					
PHLDB1 isoform 2 (UniProt Q86UU1)	inactive: -0.03	inactive: -0.222	inactive: -0.06	inactive: 0.061	inactive: -0.04		inactive: -0.022	active: -0.585	inactive: -0.02			inactive: -0.023	inactive: 0.011	inactive: 0.066	inactive: 0.089	inactive: -0.034	inactive: -0.164	inactive: -0.035	inactive: -0.001	
PIP4K2B (UniProt P78356)	active: 0.573	active: 0.776	inactive: -0.089	inactive: 0.015	inactive: -0.054		inactive: 0.172	inactive: 0.231	inactive: -0.021	inactive: -0.088		inactive: 0.022	inactive: -0.035	inactive: -0.083	inactive: 0.049	inactive: 0.029	inactive: 0.179	inactive: 0.176	inactive: -0.108	
PKM isoform 2 (UniProt P14618)	inactive: 0	inactive: 0.091	inactive: 0.018	inactive: 0.29	inactive: -0.006		inactive: -0.184	inactive: -0.046	inactive: 0.202	inactive: -0.133		inactive: -0.052	inactive: 0.125	inactive: -0.063	inactive: -0.09	inactive: 0.053		inactive: -0.045	inactive: -0.081	
PKMYT1 (UniProt Q99640)	inactive: -0.141			inactive: -0.222						inactive: -0.227			inactive: 0.261		inactive: 0.045		inactive: -0.077			inactive: -0.136
PIK3CD (UniProt O00329)	inactive: -0.069	inactive: -0.036		inactive: -0.076			inactive: 0		inactive: -0.124	inactive: -0.106		inactive: 0.003	inactive: 0.182	inactive: 0.089	inactive: -0.019	inactive: -0.059	inactive: 0.08	inactive: -0.218	inactive: -0.062	
PGPEP1 (UniProt Q9NXJ5)	inactive: 0.179	inactive: -0.204		inactive: 0.048		inactive: 0.093	inactive: -0.236		inactive: -0.061	inactive: -0.12	inactive: -0.172		inactive: 0	inactive: 0.204	inactive: 0.039	inactive: -0.24	inactive: -0.002	inactive: 0.497	inactive: -0.013	inactive: -0.04
PIGL (UniProt Q9Y2B2)	inactive: 0.001		inactive: 0.049	inactive: 0.011	inactive: -0.031	inactive: 0.033	inactive: -0.058	inactive: 0.042	inactive: 0.052		inactive: 0.1	inactive: -0.027	inactive: -0.064	inactive: -0.041	inactive: -0.114	inactive: -0.052	inactive: -0.021	inactive: -0.01	inactive: -0.06	inactive: 0.058
PI4KB isoform 2 (UniProt Q9UBF8)	inactive: 0.096				inactive: 0.002			inactive: -0.015					inactive: -0.077		inactive: 0.013		inactive: -0.276			inactive: 0.017
PKP4 (UniProt Q99569)	inactive: -0.234			inactive: -0.034									inactive: 0.151		inactive: -0.137		inactive: 0.049			inactive: 0.265
PKIB isoform 2 (UniProt Q9C010)	inactive: 0.278	inactive: -0.024			inactive: -0.05			inactive: -0.037					inactive: -0.112		inactive: 0.082		inactive: 0.032			inactive: 0.002
PLCL1 (UniProt Q15111)	inactive: -0.018		inactive: 0.232	inactive: -0.034	inactive: 0.311			inactive: -0.094		inactive: 0.032		inactive: 0.166	inactive: 0.2		inactive: 0.018	inactive: 0.035	inactive: -0.131	inactive: -0.02	inactive: 0.047	
PIGX isoform 2 (UniProt Q8TBF5)	inactive: 0.314			inactive: -0.007	inactive: -0.027	inactive: -0.011	inactive: 0.031	inactive: 0.048	inactive: 0.118	inactive: -0.045	inactive: -0.119	inactive: -0.07	inactive: 0.051	inactive: -0.083	inactive: 0.104	inactive: -0.003	inactive: 0	inactive: 0.08	inactive: -0.009	inactive: -0.025
PITRM1 isoform 2 (UniProt Q5JRX3)	inactive: 0.048	active: 0.489	inactive: 0.166	inactive: -0.029	inactive: -0.084		inactive: -0.124	inactive: -0.189	inactive: -0.016	inactive: -0.045		inactive: 0.009	inactive: -0.051	inactive: 0.09	inactive: -0.032	inactive: 0.023	inactive: -0.027	inactive: -0.034	inactive: -0.005	
PKHD1 (UniProt P08F94)	inactive: 0.066																			
PIMREG (UniProt Q9BSJ6)	inactive: 0.224																			

2 successive entries out of the list so far, for reference:
Target	log2 fold change [1]	log2 fold change (volasertib)	log2 fold change [2]	log2 fold change (epoxomicin)	log2 fold change [3]	log2 fold change (rosiglitazone)	log2 fold change [4]	log2 fold change [5]	log2 fold change (saracatinib)	log2 fold change (sotrastaurin)	log2 fold change (alvocidib)	log2 fold change (Tubastatin A)	log2 fold change (rucaparib)	log2 fold change [6]	log2 fold change (encorafenib)	log2 fold change [7]	log2 fold change [8]	log2 fold change (defactinib)	log2 fold change [9]	log2 fold change [10]
PKIB isoform 2 (UniProt Q9C010)	inactive: 0.278	inactive: -0.024			inactive: -0.05			inactive: -0.037					inactive: -0.112		inactive: 0.082		inactive: 0.032			inactive: 0.002
PLCL1 (UniProt Q15111)	inactive: -0.018		inactive: 0.232	inactive: -0.034	inactive: 0.311			inactive: -0.094		inactive: 0.032		inactive: 0.166	inactive: 0.2		inactive: 0.018	inactive: 0.035	inactive: -0.131	inactive: -0.02	inactive: 0.047	
